PubChem BioAssay AID686937, Drosophila RNAi Screening Center – 2013
Purpose: 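Genes whose loss weakens secretory pathway function in fly cells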 (primary screen). System: Drosophila S2 cells expressing secreted horseradish peroxidase. Reagent: long dsRNA against Drosophila genes. Duration: about 5.5 days (5 days dsRNA, then 12 h reporter induction). Treatment: reporter expression induced after 5 days of dsRNA, read 12 h later; inducer not stated. Measurement: 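Chemiluminescent measurement of peroxidase in the medium 12 h after reporter induction, following 5 days of dsRNA, given as a z-score per plate; higher means more secretion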. Direction: z-score: higher = more reporter secreted into medium.
The deposit covers about 23,000 reagents; shown is a random part of those that have a named target and a result. 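Reduced-secretion tags in replicate 1 do not always agree with the z-scores; no criterion for assigning the tags was given.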 A plus sign joins genes that one reagent is predicted to hit. Further read-outs or replicates are left out here. Not stated in the record: the amount of reagent.

| predicted target | dsRNA | z-score, replicate 1 | z-score, replicate 2 |
| --- | --- | --- | --- |
| CG7024 | DRSC18414 | 0.29 | 0.21 |
| piwi (P-element induced wimpy testis) | DRSC03592 | 0.33 | 0.08 |
| St1 (Sulfotransferase 1) | DRSC04504 | -0.03 | 0.1 |
| CG18808 | DRSC08539 | 0.13 | 0.17 |
| mtm (myotubularin) | DRSC03576 | 0.36 | 0.35 |
| DIP-delta (Dpr-interacting protein delta) | DRSC10214 | -0.51 | 0.1 |
| DIP-delta (Dpr-interacting protein delta) | DRSC10450 | 0.36 | 0.26 |
| CG43106 | DRSC04279 | 0.48 | 0.23 |
| CG13653 | DRSC14653 | 0.11 | 0.08 |
| Tmlh (Trimethyllysine hydroxylase) | DRSC15563 | 0.31 | 0.38 |
| CG7848 | DRSC07050 | 0.11 | 0.14 |
| CG3358 | DRSC04992 | 0.11 | 0.45 |
| CG5089 | DRSC06914 | 0.38 | 0.38 |
| L (Lobe) | DRSC06666 | -0.12 | -0.06 |
| L (Lobe) | DRSC06668 | 0.18 | 0.17 |
| Slip1 (SLo interacting protein 1) | DRSC17146 | 0.44 | 0.1 |
| Atet (ABC transporter expressed in trachea) | DRSC00263 | 0.6 | 0.29 |
| Osi9 (Osiris 9) | DRSC12278 | -0.83 | -0.56 |
| CG33695 + cana | DRSC01163 | -2.2 | -1.13 |
| CG33695 + cana | DRSC03503 | 0.46 | 0.18 |
| RhoGAP93B (Rho GTPase activating protein at 93B) | DRSC15488 | 0.47 | 0.54 |
| swa (swallow) | DRSC18842 | 0.53 | 0.56 |
| D19A | DRSC11133 | -1.48 | -0.6 |
| crq (croquemort) | DRSC00810 | 0.15 | 0.21 |
| REPTOR-BP (REPTOR-binding partner) | DRSC02683 | 0.03 | 0.43 |
| CG3918 | DRSC18331 | -2.26 | -1.2 |
| CG14618 | DRSC20631 | 0.08 | 0.03 |
| CG4455 | DRSC01983 | 0.26 | 0.28 |
| CG4455 | DRSC21684 | -0.77 | 0.33 |
| Ctr9 | DRSC08562 | 0.4 | 0.25 |
| Hn (Henna) | DRSC11184 | 0.37 | 0.31 |
| CG32845 | DRSC07867 | 0.57 | 0.04 |
| CG7304 | DRSC10804 | 0.29 | 0.26 |
| Npl4 (Nuclear protein localization 4) | DRSC15615 | 0.03 | -0.11 |
| Npl4 (Nuclear protein localization 4) | DRSC15616 | -0.2 | -0.29 |
| Rbf2 (Retinoblastoma-family protein 2) | DRSC16816 | 0.21 | 0.73 |
| Tsp42Ed (Tetraspanin 42Ed) | DRSC05940 | 0.79 | 0.51 |
| l(3)72Dn (lethal (3) 72Dn) | DRSC10468 | 0.26 | 0.22 |
| Dph2 (Diphthamide biosynthesis 2) | DRSC16222 | 0.11 | 0.1 |
| dgt1 (dim gamma-tubulin 1) | DRSC15301 | -0.07 | -0.58 |
| Lcch3 (Ligand-gated chloride channel homolog 3) | DRSC22175 | 0.14 | 0.12 |
| CG13727 | DRSC10055 | 0.25 | -0.4 |
| SP (Sex Peptide) | DRSC09664 | 0.35 | -0.16 |
| CG13640 | DRSC14639 | 0.5 | 0.56 |
| CG14142 | DRSC10145 | 0.34 | 0.08 |
| rg (rugose) | DRSC17377 | 0.4 | 0.6 |
| rg (rugose) | DRSC17726 | 0.72 | 0.52 |
| rg (rugose) | DRSC18049 | 0.28 | 0.4 |
| CIAPIN1 (Cytokine induced apoptosis inhibitor 1) | DRSC03559 | 0.07 | 0.14 |
| CG13933 | DRSC08402 | 0.12 | 0.34 |
| CG6621 | DRSC16076 | 0.15 | 0.25 |
| CG3420 | DRSC04995 | 0.39 | 0.33 |
| Ptp36E (Protein tyrosine phosphatase 36E) | DRSC03021 | 0.54 | 0.54 |
| Surf6 (Surfeit 6) | DRSC15588 | 0.13 | 0.19 |
| Tak1 (TGF-beta activated kinase 1) | DRSC20390 | 0.36 | -0.48 |
| Tak1 (TGF-beta activated kinase 1) | DRSC20561 | -0.23 | 0.65 |
| Tak1 (TGF-beta activated kinase 1) | DRSC20562 | 0.6 | 0.58 |
